Here are results for 23 targets from the supplement of paper PMC10849652.

Sequences of proteins named here, by UniProt entry; tags and fusion partners are left off. A change or cut given only in a name is not applied to a line headed by its entry.
UniProt A6NIH7: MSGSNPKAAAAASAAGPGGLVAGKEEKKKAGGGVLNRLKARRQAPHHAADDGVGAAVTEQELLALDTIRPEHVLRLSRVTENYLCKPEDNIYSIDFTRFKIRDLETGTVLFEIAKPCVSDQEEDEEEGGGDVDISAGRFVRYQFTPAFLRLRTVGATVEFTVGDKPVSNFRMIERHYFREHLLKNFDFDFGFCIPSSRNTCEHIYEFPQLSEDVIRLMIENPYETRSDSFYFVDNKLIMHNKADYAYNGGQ
UniProt Q9UDW1: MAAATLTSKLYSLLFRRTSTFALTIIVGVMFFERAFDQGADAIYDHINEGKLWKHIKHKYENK
UniProt Q96RL1: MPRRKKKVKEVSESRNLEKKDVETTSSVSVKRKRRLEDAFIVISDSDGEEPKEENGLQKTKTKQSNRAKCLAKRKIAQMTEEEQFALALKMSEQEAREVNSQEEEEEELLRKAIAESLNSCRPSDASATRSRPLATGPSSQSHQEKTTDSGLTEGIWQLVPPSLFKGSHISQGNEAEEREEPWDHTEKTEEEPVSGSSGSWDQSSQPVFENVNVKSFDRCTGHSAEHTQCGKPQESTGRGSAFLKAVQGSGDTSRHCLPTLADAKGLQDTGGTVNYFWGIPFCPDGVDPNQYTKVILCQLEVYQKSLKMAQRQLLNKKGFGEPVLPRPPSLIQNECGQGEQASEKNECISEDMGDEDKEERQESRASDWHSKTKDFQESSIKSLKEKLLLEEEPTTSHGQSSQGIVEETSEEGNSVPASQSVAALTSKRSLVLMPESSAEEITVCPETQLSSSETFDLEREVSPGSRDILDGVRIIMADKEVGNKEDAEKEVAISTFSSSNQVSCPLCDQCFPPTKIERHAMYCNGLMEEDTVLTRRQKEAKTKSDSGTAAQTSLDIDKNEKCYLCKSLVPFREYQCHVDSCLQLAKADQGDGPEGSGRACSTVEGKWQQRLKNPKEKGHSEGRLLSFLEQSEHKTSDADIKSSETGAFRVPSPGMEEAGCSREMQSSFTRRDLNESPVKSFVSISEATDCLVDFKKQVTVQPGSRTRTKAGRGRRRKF
UniProt Q9NZ43: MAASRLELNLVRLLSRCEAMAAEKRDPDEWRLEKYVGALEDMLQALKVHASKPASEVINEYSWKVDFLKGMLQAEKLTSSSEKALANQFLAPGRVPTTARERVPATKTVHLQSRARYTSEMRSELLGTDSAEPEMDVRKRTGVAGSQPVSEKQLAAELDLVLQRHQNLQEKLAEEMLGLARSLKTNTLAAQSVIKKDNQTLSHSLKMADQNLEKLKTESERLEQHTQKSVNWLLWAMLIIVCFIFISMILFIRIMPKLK
UniProt Q92575: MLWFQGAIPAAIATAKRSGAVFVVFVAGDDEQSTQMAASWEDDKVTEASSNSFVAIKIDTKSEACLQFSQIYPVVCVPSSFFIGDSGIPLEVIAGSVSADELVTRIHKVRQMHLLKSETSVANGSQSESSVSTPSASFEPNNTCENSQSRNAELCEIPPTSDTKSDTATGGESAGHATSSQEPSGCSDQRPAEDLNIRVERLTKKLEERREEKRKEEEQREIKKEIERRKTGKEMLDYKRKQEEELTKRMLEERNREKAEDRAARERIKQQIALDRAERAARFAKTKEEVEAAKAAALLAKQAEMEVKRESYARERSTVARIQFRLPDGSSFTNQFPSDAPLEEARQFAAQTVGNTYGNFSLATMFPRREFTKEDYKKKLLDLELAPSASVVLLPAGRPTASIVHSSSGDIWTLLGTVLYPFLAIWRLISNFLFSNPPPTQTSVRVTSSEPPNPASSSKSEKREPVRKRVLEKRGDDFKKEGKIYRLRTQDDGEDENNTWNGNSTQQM
UniProt Q8TED0: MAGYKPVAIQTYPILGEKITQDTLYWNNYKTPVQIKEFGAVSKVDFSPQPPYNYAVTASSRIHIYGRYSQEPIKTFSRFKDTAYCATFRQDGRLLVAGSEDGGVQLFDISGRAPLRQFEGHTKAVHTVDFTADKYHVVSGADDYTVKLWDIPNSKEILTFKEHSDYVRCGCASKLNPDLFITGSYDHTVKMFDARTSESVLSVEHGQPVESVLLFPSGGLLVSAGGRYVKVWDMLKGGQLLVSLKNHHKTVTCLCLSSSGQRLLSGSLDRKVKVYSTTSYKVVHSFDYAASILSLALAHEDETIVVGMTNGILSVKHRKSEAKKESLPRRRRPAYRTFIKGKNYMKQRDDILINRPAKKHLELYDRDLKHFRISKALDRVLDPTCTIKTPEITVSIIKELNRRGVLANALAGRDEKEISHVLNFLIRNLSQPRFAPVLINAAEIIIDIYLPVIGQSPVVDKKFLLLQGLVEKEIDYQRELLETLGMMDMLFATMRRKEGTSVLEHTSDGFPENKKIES
UniProt Q8TAA9: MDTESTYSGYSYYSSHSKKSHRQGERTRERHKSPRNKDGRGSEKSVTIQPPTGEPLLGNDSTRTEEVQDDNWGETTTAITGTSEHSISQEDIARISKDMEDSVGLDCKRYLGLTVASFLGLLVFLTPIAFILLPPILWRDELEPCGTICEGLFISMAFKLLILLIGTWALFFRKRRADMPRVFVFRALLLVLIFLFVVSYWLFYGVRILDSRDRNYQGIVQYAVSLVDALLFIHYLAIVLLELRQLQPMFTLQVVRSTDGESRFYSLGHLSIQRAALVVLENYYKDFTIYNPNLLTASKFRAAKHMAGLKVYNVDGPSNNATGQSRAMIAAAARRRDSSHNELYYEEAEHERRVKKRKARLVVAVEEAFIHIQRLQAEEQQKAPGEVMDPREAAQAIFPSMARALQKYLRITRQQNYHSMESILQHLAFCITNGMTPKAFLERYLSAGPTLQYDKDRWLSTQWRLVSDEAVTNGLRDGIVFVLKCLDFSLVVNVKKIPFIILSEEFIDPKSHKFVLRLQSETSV
UniProt O75379: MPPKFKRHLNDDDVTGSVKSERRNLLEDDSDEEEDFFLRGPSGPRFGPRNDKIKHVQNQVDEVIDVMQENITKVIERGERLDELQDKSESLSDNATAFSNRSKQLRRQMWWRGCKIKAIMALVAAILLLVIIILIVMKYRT
UniProt O95071: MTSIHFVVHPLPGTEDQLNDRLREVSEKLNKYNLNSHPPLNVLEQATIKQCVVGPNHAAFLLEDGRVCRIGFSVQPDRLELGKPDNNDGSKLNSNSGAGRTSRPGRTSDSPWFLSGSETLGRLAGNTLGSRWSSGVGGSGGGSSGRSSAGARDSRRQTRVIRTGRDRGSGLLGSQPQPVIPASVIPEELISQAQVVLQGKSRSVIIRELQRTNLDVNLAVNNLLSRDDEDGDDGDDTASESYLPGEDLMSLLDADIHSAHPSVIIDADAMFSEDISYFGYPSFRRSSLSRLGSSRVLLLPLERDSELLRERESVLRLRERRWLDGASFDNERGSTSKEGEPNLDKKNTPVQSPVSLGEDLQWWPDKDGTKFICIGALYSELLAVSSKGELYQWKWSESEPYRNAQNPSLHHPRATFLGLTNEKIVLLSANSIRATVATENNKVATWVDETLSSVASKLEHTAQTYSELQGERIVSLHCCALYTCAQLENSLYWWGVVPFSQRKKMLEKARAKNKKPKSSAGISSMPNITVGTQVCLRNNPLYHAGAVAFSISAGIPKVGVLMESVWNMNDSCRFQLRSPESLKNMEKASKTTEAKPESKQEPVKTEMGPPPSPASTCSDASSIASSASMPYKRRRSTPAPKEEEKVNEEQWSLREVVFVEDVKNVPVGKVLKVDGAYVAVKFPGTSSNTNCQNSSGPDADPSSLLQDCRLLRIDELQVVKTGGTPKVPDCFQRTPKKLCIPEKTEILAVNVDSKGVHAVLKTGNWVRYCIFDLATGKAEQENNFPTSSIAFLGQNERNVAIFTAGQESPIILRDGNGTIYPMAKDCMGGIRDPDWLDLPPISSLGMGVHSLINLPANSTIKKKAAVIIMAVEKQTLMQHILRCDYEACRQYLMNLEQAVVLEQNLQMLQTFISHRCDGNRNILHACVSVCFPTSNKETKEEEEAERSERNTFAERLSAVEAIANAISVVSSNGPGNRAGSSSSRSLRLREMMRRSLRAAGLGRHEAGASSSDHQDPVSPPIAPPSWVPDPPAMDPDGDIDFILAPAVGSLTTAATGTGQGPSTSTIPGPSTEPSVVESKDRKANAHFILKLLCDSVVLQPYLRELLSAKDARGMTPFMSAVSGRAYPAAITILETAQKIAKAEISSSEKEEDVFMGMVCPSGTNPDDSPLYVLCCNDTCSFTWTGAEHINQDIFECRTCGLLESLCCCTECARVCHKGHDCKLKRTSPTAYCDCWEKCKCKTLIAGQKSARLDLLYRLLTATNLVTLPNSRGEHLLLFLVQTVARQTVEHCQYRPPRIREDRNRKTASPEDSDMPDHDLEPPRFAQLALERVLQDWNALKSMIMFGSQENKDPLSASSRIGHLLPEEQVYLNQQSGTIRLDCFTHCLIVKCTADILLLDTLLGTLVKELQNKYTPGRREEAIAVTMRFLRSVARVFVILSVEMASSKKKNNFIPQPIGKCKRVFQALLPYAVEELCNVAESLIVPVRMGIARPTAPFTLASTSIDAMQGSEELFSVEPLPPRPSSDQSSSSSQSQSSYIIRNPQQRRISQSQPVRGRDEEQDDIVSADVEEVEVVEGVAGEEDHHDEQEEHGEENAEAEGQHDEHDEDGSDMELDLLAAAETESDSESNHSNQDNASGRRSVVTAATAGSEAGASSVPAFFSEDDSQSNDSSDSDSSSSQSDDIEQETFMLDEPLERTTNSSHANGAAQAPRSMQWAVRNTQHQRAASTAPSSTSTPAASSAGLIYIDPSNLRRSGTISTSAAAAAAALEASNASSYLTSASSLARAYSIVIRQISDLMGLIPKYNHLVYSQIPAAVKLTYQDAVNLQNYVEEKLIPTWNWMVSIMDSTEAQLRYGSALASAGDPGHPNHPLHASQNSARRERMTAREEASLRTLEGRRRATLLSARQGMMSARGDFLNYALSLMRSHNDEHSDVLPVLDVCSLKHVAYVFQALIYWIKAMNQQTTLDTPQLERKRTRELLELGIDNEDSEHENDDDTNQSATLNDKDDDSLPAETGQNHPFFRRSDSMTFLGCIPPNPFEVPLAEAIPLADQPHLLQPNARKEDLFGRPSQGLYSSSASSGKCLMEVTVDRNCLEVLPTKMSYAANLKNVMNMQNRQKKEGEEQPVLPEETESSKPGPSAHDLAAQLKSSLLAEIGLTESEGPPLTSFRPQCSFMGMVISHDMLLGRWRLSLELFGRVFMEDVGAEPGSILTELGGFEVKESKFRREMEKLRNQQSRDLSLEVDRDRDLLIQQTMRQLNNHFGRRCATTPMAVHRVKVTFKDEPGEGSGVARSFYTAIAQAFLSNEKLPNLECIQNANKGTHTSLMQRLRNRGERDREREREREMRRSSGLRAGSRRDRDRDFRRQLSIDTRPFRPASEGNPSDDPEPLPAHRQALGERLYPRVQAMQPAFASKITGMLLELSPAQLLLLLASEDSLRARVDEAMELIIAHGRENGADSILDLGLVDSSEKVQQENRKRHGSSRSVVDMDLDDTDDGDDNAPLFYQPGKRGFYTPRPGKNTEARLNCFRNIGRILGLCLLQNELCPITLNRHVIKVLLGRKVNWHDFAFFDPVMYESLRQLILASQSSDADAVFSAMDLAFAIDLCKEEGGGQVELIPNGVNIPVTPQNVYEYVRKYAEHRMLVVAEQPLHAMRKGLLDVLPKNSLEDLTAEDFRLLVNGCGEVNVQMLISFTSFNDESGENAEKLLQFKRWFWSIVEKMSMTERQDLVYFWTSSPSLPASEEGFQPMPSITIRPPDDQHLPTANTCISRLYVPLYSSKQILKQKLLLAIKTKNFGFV
UniProt Q9UPT9: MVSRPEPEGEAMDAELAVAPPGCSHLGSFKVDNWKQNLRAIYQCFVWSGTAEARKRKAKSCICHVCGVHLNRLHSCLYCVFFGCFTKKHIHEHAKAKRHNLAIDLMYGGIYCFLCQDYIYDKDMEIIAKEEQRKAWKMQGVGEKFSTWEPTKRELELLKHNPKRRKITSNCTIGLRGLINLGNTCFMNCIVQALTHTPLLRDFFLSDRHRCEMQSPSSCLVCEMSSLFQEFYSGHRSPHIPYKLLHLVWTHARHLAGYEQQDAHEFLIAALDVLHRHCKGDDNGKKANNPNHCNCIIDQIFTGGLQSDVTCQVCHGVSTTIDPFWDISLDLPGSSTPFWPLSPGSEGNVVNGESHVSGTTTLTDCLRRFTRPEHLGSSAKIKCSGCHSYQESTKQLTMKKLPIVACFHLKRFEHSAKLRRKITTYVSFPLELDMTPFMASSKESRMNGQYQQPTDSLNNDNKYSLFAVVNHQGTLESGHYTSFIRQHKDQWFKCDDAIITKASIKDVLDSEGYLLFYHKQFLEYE
UniProt Q96LJ8: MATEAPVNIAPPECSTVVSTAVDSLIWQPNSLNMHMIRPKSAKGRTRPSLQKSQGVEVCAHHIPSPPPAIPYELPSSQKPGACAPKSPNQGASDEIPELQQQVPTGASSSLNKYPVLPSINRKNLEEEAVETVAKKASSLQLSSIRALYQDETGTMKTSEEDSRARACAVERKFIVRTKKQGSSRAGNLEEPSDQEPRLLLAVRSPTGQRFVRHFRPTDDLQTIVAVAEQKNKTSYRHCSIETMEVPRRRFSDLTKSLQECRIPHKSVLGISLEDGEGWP

Some of the results follow.

Compound in the test: Cc1sc2c(c1C)C(c1ccc(Cl)cc1)=N[C@@H](CC(=O)OC(C)(C)C)c1nnc(C)n1-2
In words: log2 fold change, soluble protein after heating vs DMSO (PISA); higher = thermal stabilisation; K562 cells, 10 uM, 30 min; active = over 0.2 and 3.5 SD of the protein, either way, in both replicates (recomputed). Put shortly: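 Thermal stability values are relative to control samples and come from duplicates. They are expressed as log2 fold changes. For measurement, K562 cells (2×10^6 cells/mL) received 10 μM compound for 30 min, and aliquots were heated for 3 min over 48°C-58°C, pooled, and extracted at 4°C in PBS with 0.5% NP-40. Soluble protein, the supernatant after 21,000xg for 90 min, was quantified by TMTpro 16plex LC-MS/MS with equalised channel sums.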
For VBP1 (UniProt P61758), the log2 fold change is inactive: 0.002. For UBE3C (UniProt Q15386), the log2 fold change is inactive: -0.019.

In the case of UNC119B (UniProt A6NIH7), the log2 fold change was inactive: -0.016. With USP25 isoform 3 (UniProt Q9UHP3), the log2 fold change is inactive: -0.007. Regarding UQCR10 (UniProt Q9UDW1), the log2 fold change is inactive: -0.131. The same measure for USP5 (UniProt P45974): inactive: 0; for UIMC1 (UniProt Q96RL1): inactive: 0.045. On to USP8 (UniProt P40818), for which the log2 fold change is inactive: 0.051.

For the target USP24 (UniProt Q9UPU5), the log2 fold change is inactive: -0.198. The same measure for USP48 isoform 8 (UniProt Q86UV5): inactive: -0.012. With USE1 (UniProt Q9NZ43), the log2 fold change is inactive: 0.062. The same measure for UBXN4 (UniProt Q92575): inactive: -0.032. UFM1 isoform 2 (UniProt P61960): the log2 fold change is inactive: -0.069. Regarding UNC45A (UniProt Q9H3U1), the log2 fold change was inactive: -0.018. Next, UTP15 (UniProt Q8TED0): inactive: 0.118; USP39 (UniProt Q53GS9): inactive: 0.049; VANGL1 (UniProt Q8TAA9): inactive: 0.017. Turning to VAMP4 (UniProt O75379), the log2 fold change was inactive: 0.069.

Consider UBR5 (UniProt O95071), for which the log2 fold change is inactive: 0.081. UQCRC2 (UniProt P22695): the log2 fold change is inactive: -0.02. The same measure for USP22 (UniProt Q9UPT9): inactive: -0.019; for UNK (UniProt Q9C0B0): inactive: 0.09. Take UBXN10 (UniProt Q96LJ8): the log2 fold change was inactive: 0.018.
